No dose or concentration is given here for some results. Starred links: 1 amine or outer side, 2 acyl side, 3 side chain; linkers in the order of their positions; H or OH if unused. Positions of bridges follow the written chain, without caps; N, C: chain ends. Non-standard residues stand in square brackets, D forms with d. Residues, ends and D or L forms follow the SMILES beside them. *: point of attachment. pTerphenylCO(4''-OnC5H11) = CCCCCOc1ccc(-c2ccc(-c3ccc(C(=O)*)cc3)cc2)cc1; Orn(4R-OH,5R-OH) = O=C([C@H](C[C@@H](O)[C@@H](O)N[*:3])N[*:1])[*:2]; hTyr(3S-OH,4S-OH) = N[C@H](C(=O)O)[C@H](O)[C@@H](O)c1ccc(O)cc1; Pro(3S-OH,4S-Me) = C[C@H]1CN[C@H](C(=O)O)[C@H]1O; Hyp = O=C(O)[C@@H]1C[C@@H](O)CN1

The series relates to Candida spp. The series can be described thus: Spontaneous mutant selection, all 5 Candida strains together. Format: cell-based. To be noted: total vs. 5 Candida strains.

For the compound `CCCCCOc1ccc(-c2ccc(-c3ccc(C(=O)N[C@H]4C[C@@H](O)[C@@H](O)NC(=O)[C@@H]5[C@@H](O)[C@@H](C)CN5C(=O)[C@H]([C@@H](C)O)NC(=O)[C@H]([C@H](O)[C@@H](O)c5ccc(O)cc5)NC(=O)[C@@H]5C[C@@H](O)CN5C(=O)[C@H]([C@@H](C)O)NC4=O)cc3)cc2)cc1` [ANID, anidulafungin] ({pTerphenylCO(4''-OnC5H11)}-[Orn(4R-OH,5R-OH)]T[Hyp][hTyr(3S-OH,4S-OH)]T[Pro(3S-OH,4S-Me)]; lactam 1-C), the “spontaneous mutants recovered following selection” value came out at 128. In the case of `CC[C@H](C)C[C@H](C)CCCCCCCCC(=O)N[C@H]1C[C@@H](O)[C@@H](NCCN)NC(=O)[C@@H]2[C@@H](O)CCN2C(=O)[C@H]([C@H](O)CCN)NC(=O)[C@H]([C@H](O)[C@@H](O)c2ccc(O)cc2)NC(=O)[C@@H]2C[C@@H](O)CN2C(=O)[C@H]([C@@H](C)O)NC1=O` [CAS, caspofungin] it was 281.

For the origin of these results see patent US20180256673A1, “METHODS FOR TREATING FUNGAL INFECTIONS” (priority 2015, published 2018).
